Experimental findings from patent US20240279232A1, “USE OF SUBSTITUTED 5-(4-METHYL-6-PHENYL-4H-BENZO[F]IMIDAZO[1,5-A][1,4] DIAZEPIN-3-YL)-1,2,4-OXADIAZOLES IN THE TREATMENT OF INFLAMMATORY CONDITIONS” (priority 2021, published 2024) are described below.

pEC50: −log10 of the molar value.

Assay [1] concerns GABAAR on immortalized human microglia. The assay is described as follows: Automated patch clamp, immortalized human microglia. To be noted: −80 mV, read-out: EC50 of current response. The assay is classed as cell-based.
Assay [2] concerns GABAAR on HMC3 human microglia cells. To be noted: read-out: EC50 of current response, patch clamped at −80 mV. In general terms: Patch clamp records ionic current or voltage across a cell membrane.
Assay [3] deals with GABAAR on immortalized mouse microglia. The assay is described as follows: Automated patch clamp, immortalized mouse microglia. To be noted: −80 mV, read-out: EC50 of current response. The assay is classed as cell-based.

What is called pEC50 is −log10 of the EC50, conventionally taken in molar units. `NCCCC(=O)O` [GABA]: the pEC50 in assay [1] was 5.71; in assay [2] it was 6.57; in assay [3], 6.59.
